No constants are given. Whether binding was seen depends on the method and setting. In cells and extracts the contact can be indirect. For some assays here: A result given as binding can be weak or reduced; the word gives no strength. Tags and fused reporters may be left off the sequences shown.
Columns and labels:
Assay in all cases: pull-down
[1] = target: H10CLPX E-domain (CLPXE) (human)
[2] = target: H10CLPX Zinc binding domain (CLPXZBD) (human)
[3] = target: His10-tagged CLPX (H10CLPX) (human)
[4] = target: CLPX4A (full-length CLPX with residues 120 to 123 SSTR replaced with AAAA) (human)

| binding [1] | binding [2] | binding [3] | binding [4] | Binder |
| --- | --- | --- | --- | --- |
| no binding | binds | binds | – | GST-PDIP38 (protein, UniProt Q9Y2S7 52-368) SSRNRPEGKVLETVGVFEVPKQNGKYETGQLFLHSIFGYRGVVLFPWQARLYDRDVASAAPEKAENPAGHGSKEVKGKTHTYYQVLIDARDCPHISQRSQTEAVTFLANHDDSRALYAIPGLDYVSHEDILPYTSTDQVPIQHELFERFLLYDQTKAPPFVARETLRAWQEKNHPWLELSDVHRETTENIRVTVIPFYMGMREAQNSHVYWWRYCIRLENLDSDVVQLRERHWRIFSLSGTLETVRGRGVVGREPVLSKEQPAFQYSSHVSLQASSGHMWGTFRFERPDGSHFDVRIPPFSLESNKDEKTPPSGLHW |
| – | – | binds | – | GST-PDIP38N (domain or fragment, UniProt Q9Y2S7 52-153) SSRNRPEGKVLETVGVFEVPKQNGKYETGQLFLHSIFGYRGVVLFPWQARLYDRDVASAAPEKAENPAGHGSKEVKGKTHTYYQVLIDARDCPHISQRSQTE |
| – | binds | binds | no binding | untagged PDIP38 (mature) (protein, UniProt Q9Y2S7 52-368) SSRNRPEGKVLETVGVFEVPKQNGKYETGQLFLHSIFGYRGVVLFPWQARLYDRDVASAAPEKAENPAGHGSKEVKGKTHTYYQVLIDARDCPHISQRSQTEAVTFLANHDDSRALYAIPGLDYVSHEDILPYTSTDQVPIQHELFERFLLYDQTKAPPFVARETLRAWQEKNHPWLELSDVHRETTENIRVTVIPFYMGMREAQNSHVYWWRYCIRLENLDSDVVQLRERHWRIFSLSGTLETVRGRGVVGREPVLSKEQPAFQYSSHVSLQASSGHMWGTFRFERPDGSHFDVRIPPFSLESNKDEKTPPSGLHW |
| – | – | no binding | – | GST-PDIP38C (domain or fragment, UniProt Q9Y2S7 157-368) FLANHDDSRALYAIPGLDYVSHEDILPYTSTDQVPIQHELFERFLLYDQTKAPPFVARETLRAWQEKNHPWLELSDVHRETTENIRVTVIPFYMGMREAQNSHVYWWRYCIRLENLDSDVVQLRERHWRIFSLSGTLETVRGRGVVGREPVLSKEQPAFQYSSHVSLQASSGHMWGTFRFERPDGSHFDVRIPPFSLESNKDEKTPPSGLHW |

From publication doi:10.1101/2020.05.19.105320
